This is one part of the list. Shown are side measurements of this screen, not its main read-out; they come without a call. Compounds called inactive in the main read-out are mostly missing here. The note in brackets gives the kind of curve behind each potency; many fits are weak.
Test: qHTS Assay for Lipid Storage Modulators in Drosophila S3 Cells;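 for cell number change: cells counted by Cell Tracker Red CMTPX staining in the red channel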
Conditions: BODIPY lipid droplet fluorescence, 18-24 h; for cell number change: measured here: cell count max response, cells fed with added oleic acid
Procedure, shortened: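 Laser-scanning cytometry quantifies lipid droplet accumulation (500–530 nm total intensity; droplet/cell object ratio) in oleic acid-fed (400 uM added) Drosophila S3 cells treated with a concentration series. 20 uM Triacsin C defined 100% inhibition.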

[1] = measured here: cell number channel AC50, cells fed with added oleic acid
[2] = measured here: lipid fluorescence (Fed channel) AC50, cells fed with added oleic acid

Compound | cell number change [%] | AC50 [1] | AC50 [2]
Cc1c(C(=O)NCCS(=O)(=O)N2CCN(c3ccccc3F)CC2)cccc1[N+](=O)[O-] | 8.87 |  | 
CCN(C(=S)Nc1ccc(C(C)=O)cc1)C1CCCCC1 | -13 | 0.326 µM [falling, partial curve, poor fit] | 
C/C(=N\NC(=O)c1cc2c(s1)CCC(C)C2)c1ccc[nH]1 (centres undefined) | -44.7 | 4.61 µM [falling, full curve] | 5.17 µM [falling, full curve]
Cc1ccc2[nH]c3c(=O)n(CC(=O)NCc4ccco4)ncc3c2c1 | 35.7 | 0.231 µM [rising, full curve, poor fit] | 
COc1ccc(S(=O)(=O)N(CC(=O)NCCSc2ccccn2)c2ccccc2)cc1 | 14.1 | 1.46 µM [rising, partial curve, poor fit] | 0.58 µM [falling, full curve]
O=c1[nH]c(C2CCN(S(=O)(=O)c3ccccc3C(F)(F)F)CC2)nc2c1nnn2Cc1ccccc1 | -1.39 |  | 
CCc1noc(N)c1C(=O)Nc1ccc(F)c(Cl)c1 | -27.8 |  | 32.6 µM [falling, single point]
CC(OC(=O)c1cccc(-n2cnnn2)c1)C(=O)NCc1ccccc1 (centres undefined) | 17 |  | 4.61 µM [falling, single point]
CCCCNS(=O)(=O)c1ccc2nc(SCC(=O)Nc3ccccc3)[nH]c2c1 | 47.4 | 29.1 µM [rising, single point] | 10.3 µM [rising, partial curve, poor fit]
Cc1ccc(C2NC(C(=O)O)CS2)cc1 (centres undefined) | -23.1 |  | 5.17 µM [falling, full curve]
COc1cc(NC(=O)c2cc(C3CC3)on2)c(OC)cc1Cl | 29.7 |  | 32.6 µM [rising, single point]
CCN(CC)CCOc1cc2c(nn1)Oc1ccccc1N2C | -7.01 | 6.51 µM [falling, single point] | 23.1 µM [falling, partial curve]
Cc1ccc(C(=O)NC2CCCc3c2cnn3-c2ccc(F)cc2F)cn1 (centres undefined) | -47.1 | 5.8 µM [falling, full curve, poor fit] | 1.84 µM [falling, full curve]
COCC(=O)N(Cc1ccc(OC)cc1)Cc1nc2ccccc2c(=O)[nH]1 | 93.3 | 16.4 µM [rising, partial curve] | 4.61 µM [falling, partial curve]
CCOc1ccc(C(=O)Nc2c3c(nn2-c2ccccc2)CS(=O)(=O)C3)cc1 | 16.8 |  | 18.4 µM [rising, single point]
O=C(NCc1ccc2c(c1)OCO2)c1cccs1 | 8.03 |  | 0.731 µM [rising, full curve, poor fit]
COc1ccc(C(=O)c2ccc(CC(=O)O)s2)cc1 | 6.92 | 0.411 µM [falling, single point] | 
Clc1ccccc1OCCN1CCC(Cc2ccccc2)CC1 | 14.6 |  | 25.9 µM [rising, single point]
C=CCn1c(SCc2ccccc2C#N)nnc1-c1cc(Br)ccc1O | -23.4 | 0.82 µM [falling, full curve, poor fit] | 0.231 µM [falling, partial curve, poor fit]

Compound | cell number change [%] | AC50 [1] | AC50 [2]
CCOC(=O)c1cnc(N2CCN(c3ccccc3)CC2)[nH]c1=O | -2.78 |  | 3.26 µM [falling, partial curve, poor fit]
Cc1cc(NC(=O)C2CCCN(S(=O)(=O)c3cnc[nH]3)C2)ccc1Br (centres undefined) | 6.3 |  | 
CN(CC(=O)NCc1ccccc1Cl)S(=O)(=O)c1ccc2c(c1)n(C)c(=O)c(=O)n2C | -8.25 |  | 6.51 µM [falling, single point]
C=CCOc1ccc(CNn2cn[nH]c2=S)cc1OC |  |  | 29.1 µM [falling, single point]
CCCC(=O)Nc1cc2c(cc1C(C)=O)OCCO2 | 3.38 |  | 
C/C(=N\Nc1ccc([N+](=O)[O-])cc1)c1ccco1 | 44.3 | 7.31 µM [rising, partial curve] | 5.8 µM [rising, partial curve]
CCc1sc(NC(=O)CN2CCOCC2)nc1-c1ccccc1 | -10.1 | 0.116 µM [falling, full curve, poor fit] | 0.651 µM [falling, single point]
CCOC(=O)N1CCN(S(=O)(=O)c2ccc(OCC(=O)OC)cc2)CC1 | -39.3 | 0.0366 µM [falling, full curve, poor fit] | 5.17 µM [falling, full curve]
CSCCC(NS(=O)(=O)c1ccc(C)cc1)C(=O)N1CCCC1 (centres undefined) | 15.9 |  | 6.51 µM [falling, single point]
CCCCN(CC)CCCNC(=O)c1cn(-c2ccc(OC)cc2)c(=O)c2ccccc12 | 37.3 | 29.1 µM [rising, single point] | 0.58 µM [rising, single point]
CNS(=O)(=O)c1cccc(C(=O)OCc2cc(=O)oc3c(C)c(O)ccc23)c1 | 0.84 |  | 
O=C1/C(=C/c2cccc([N+](=O)[O-])c2)CCc2ccccc21 | 20.5 | 0.517 µM [falling, single point] | 0.206 µM [falling, full curve, poor fit]
CN(CC(=O)O)S(=O)(=O)c1cc(Cl)ccc1Cl | -92.9 | 29.1 µM [falling, single point] | 4.11 µM [falling, full curve]
CC(NC(=S)Nc1ccc(S(=O)(=O)N2CCOCC2)cc1)C1CC2CCC1C2 (centres undefined) | -25.4 |  | 29.1 µM [falling, single point]
c1cncc(-c2ccc3ncnc(NCc4ccc5c(c4)OCO5)c3c2)c1 | 15.6 |  | 0.731 µM [rising, single point]
Cc1ccccc1NC(=O)N1C2CCCC1CC(NC(=O)C(C)(C)C)C2 (centres undefined) | 8.82 |  | 0.116 µM [rising, single point]
NC(=S)Nc1ccc(F)c(F)c1F | -2.45 |  | 0.517 µM [falling, full curve, poor fit]
COc1ccc(C2/C(=C(/O)c3ccc4c(c3)CC(C)O4)C(=O)C(=O)N2CCCn2ccnc2)cc1 (centres undefined) | -6.49 |  | 29.1 µM [rising, single point]
O=[N+]([O-])c1ccccc1CN1CCN(Cc2c[nH]c3ccccc23)CC1 | 19.8 |  | 1.16 µM [falling, single point]

Compound | cell number change [%] | AC50 [1] | AC50 [2]
Cc1ccc(S(=O)(=O)Nc2nc(C)c(NC(=O)OCCCl)s2)cc1 | 27.7 |  | 
CCN1C(=O)CC(C(=O)NCCc2ccc(S(N)(=O)=O)cc2)SC1=Nc1ccc(OC)cc1 (centres undefined) | 6.87 | 3.26 µM [falling, single point] | 2.91 µM [falling, single point]
COc1ccc(NC(=S)N(CCc2c(C)[nH]c3ccccc23)Cc2ccco2)cc1 | -14.9 |  | 3.26 µM [rising, partial curve]
Cn1cnnc1SCC(=O)c1c[nH]c2ccccc12 | 1.38 |  | 
COc1ccccc1CNS(=O)(=O)c1c(C(=O)N2CCCCC2)c(C)n(C)c1C | -20.8 |  | 23.1 µM [falling, single point]
N/C(=N\OC(=O)CCC1CCCC1)c1ccccc1 | 12.9 |  | 3.26 µM [rising, single point]
COc1cc(C(=O)N2CCN(c3cccc(C)c3C)CC2)ccc1OCC(=O)N1CCOCC1 | -3.08 |  | 1.64 µM [rising, partial curve]
CNC[C@H](CC1CCCCC1)NC[C@H](Cc1ccccc1)NCCC12CC3CC(CC(C3)C1)C2 | -29.6 |  | 16.4 µM [falling, partial curve]
COc1ccc2[nH]c(=S)[nH]c2c1 | 45 | 16.4 µM [rising, single point] | 4.11 µM [falling, single point]
COc1ccc(NC(=O)C2CCN(C(=O)[C@@H]3Cc4ccccc4CN3C(=O)OC(C)(C)C)CC2)cc1 | 2.02 |  | 
Cc1ccc(/C=C2\SC(=S)N(CCC(=O)NNC(=O)c3ccc(O)cc3)C2=O)cc1 | 13 |  | 0.651 µM [rising, single point]
COc1cc(C=O)ccc1OS(=O)(=O)c1ccccc1[N+](=O)[O-] | 12.7 | 3.66 µM [falling, single point] | 6.51 µM [falling, single point]
CCOc1ccc(CCNC(=O)C2CCN(c3nnc(-n4cccc4)s3)CC2)cc1 |  |  | 0.291 µM [rising, full curve, poor fit]
CC(C)OC(=O)/C(=C\C=C\c1ccccc1)NC(=O)c1ccccc1 | -41.2 | 23.1 µM [falling, single point] | 20.6 µM [falling, single point]
CCn1cc(Br)c(C(=O)Nc2cccc(SC)c2)n1 | -18.7 |  | 2.59 µM [rising, single point]
O=C(CN1C(=O)/C(=C/c2ccccc2)Sc2ccccc21)NCCCN1CCOCC1 | 26.9 | 0.0411 µM [rising, full curve, poor fit] | 
CCOc1cccc(-c2c(C(=O)N/N=C/c3ccsc3)nnn2-c2nonc2N)c1 | -24.2 |  | 23.1 µM [falling, single point]
COc1cc(NC(=O)C2CCCCC2)c2ncccc2c1 |  |  | 0.326 µM [falling, partial curve, poor fit]
CCOC(=O)c1nc(-c2ccccc2)oc1N1CCOCC1 | 161 |  | 

Structural class, the entries above with a tert-butyl group (2)
Compound | cell number change [%] | AC50 [1] | AC50 [2]
Cc1ccccc1NC(=O)N1C2CCCC1CC(NC(=O)C(C)(C)C)C2 (centres undefined) | 8.82 |  | 0.116 µM [rising, single point]
COc1ccc(NC(=O)C2CCN(C(=O)[C@@H]3Cc4ccccc4CN3C(=O)OC(C)(C)C)CC2)cc1 | 2.02 |  | 

Reference: PubChem BioAssay AID2685 (National Center for Advancing Translational Sciences (NCATS), 2010)
